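Human melanoma cells were exposed to two drugs together for 72 h in 1,536-well plates and read by automated microscopy after fixing and staining. Each value is the count of nuclei relative to DMSO-treated wells, in %, so that 100 equals the control. Concentrations were fixed for each drug; these are the lower of two levels, a fifth of the higher. These are primary screening values without error estimates.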 An unselected part of the screen is shown. An entry leaves out what has no value listed here.

Every entry is a combination with lapatinib at 0.8 µM: CS(=O)(=O)CCNCc1ccc(-c2ccc3ncnc(Nc4ccc(OCc5cccc(F)c5)c(Cl)c4)c3c2)o1

Compounds and concentrations:
GW441756 (0.4 µM): Cn1cc(/C=C2\C(=O)Nc3cccnc32)c2ccccc21
A-769662 (2 µM): N#Cc1c(O)c2c(-c3ccc(-c4ccccc4O)cc3)csc2[nH]c1=O
NVP-TAE684 (0.08 µM): COc1cc(N2CCC(N3CCN(C)CC3)CC2)ccc1Nc1ncc(Cl)c(Nc2ccccc2S(=O)(=O)C(C)C)n1
BI-D1870 (0.2 µM): CC(C)CCN1c2nc(Nc3cc(F)c(O)c(F)c3)ncc2N(C)C(=O)C1C (stereo not given)
pioglitazone (2 µM): CCc1ccc(CCOc2ccc(CC3SC(=O)NC3=O)cc2)nc1 (stereo not given)
Src-I1 (2 µM): COc1cc2ncnc(Nc3ccc(Oc4ccccc4)cc3)c2cc1OC
KU-55933 (1 µM): O=c1cc(-c2cccc3c2Sc2ccccc2S3)oc(N2CCOCC2)c1
XAV939 (2 µM): Oc1nc(-c2ccc(C(F)(F)F)cc2)nc2c1CSCC2
LFM-A13 (2 µM): C/C(O)=C(\C#N)C(=O)Nc1cc(Br)ccc1Br
FH535 (1 µM): Cc1cc([N+](=O)[O-])ccc1NS(=O)(=O)c1cc(Cl)ccc1Cl
T0901317 (1.4 µM): O=S(=O)(c1ccccc1)N(CC(F)(F)F)c1ccc(C(O)(C(F)(F)F)C(F)(F)F)cc1
JZL184 (1 µM): O=C(Oc1ccc([N+](=O)[O-])cc1)N1CCC(C(O)(c2ccc3c(c2)OCO3)c2ccc3c(c2)OCO3)CC1
embelin (1.2 µM): CCCCCCCCCCCC1=C(O)C(=O)C=C(O)C1=O
PD173074 (0.1 µM): CCN(CC)CCCCNc1ncc2cc(-c3cc(OC)cc(OC)c3)c(NC(=O)NC(C)(C)C)nc2n1

{"partner": "embelin", "A2058": 109, "501mel": 75.1, "C32": 109, "A101D": 89.7}
{"partner": "GW441756", "A2058": 99.5, "501mel": 91.2, "C32": 93.5, "A101D": 101}
{"partner": "LFM-A13", "A2058": 92.9, "501mel": 104, "C32": 97.5, "A101D": 85.7}
{"partner": "pioglitazone", "A2058": 84.2, "501mel": 56.7, "C32": 93.3, "A101D": 88.4}
{"partner": "KU-55933", "A2058": 103, "C32": 92.8, "A101D": 95.7}
{"partner": "XAV939", "A2058": 86.3, "501mel": 119, "C32": 108, "A101D": 72.1}
{"partner": "JZL184", "A2058": 110, "501mel": 106, "C32": 110, "A101D": 86.4}
{"partner": "PD173074", "A2058": 97.7, "501mel": 78.6, "C32": 85.2, "A101D": 89.4}
{"partner": "BI-D1870", "A2058": 92.0, "501mel": 72.1, "C32": 109, "A101D": 77.3}
{"partner": "FH535", "A2058": 82.7, "501mel": 59.9, "C32": 110, "A101D": 80.6}
{"partner": "T0901317", "A2058": 91.5, "501mel": 94.1, "C32": 116, "A101D": 87.1}
{"partner": "A-769662", "A2058": 99.2, "501mel": 110, "C32": 112, "A101D": 90.5}
{"partner": "NVP-TAE684", "A2058": 64.8, "501mel": 82.1, "C32": 97.6, "A101D": 86.2}
{"partner": "Src-I1", "A2058": 95.0, "501mel": 123, "C32": 116, "A101D": 106}

Some entries from above, unchanged:

| Partner | A2058 | 501mel | C32 | A101D |
|---|---|---|---|---|
| T0901317 | 91.5 | 94.1 | 116 | 87.1 |
| A-769662 | 99.2 | 110 | 112 | 90.5 |

Data from the primary screen of doi:10.1371/journal.pone.0140310, rounded.